Experimental data as given in paper PMC7037036, “C-Terminal Domain of the Human Zinc Transporter hZnT8 Is Structurally Indistinguishable from Its Disease Risk Variant (R325W)” (International Journal of Molecular Sciences, 2020).
These are yes or no findings as the source states them, for the method shown.

Target: C-terminal domain (CTD) of the human zinc transporter 8 (hZnT8), wild type (human) (UniProt Q8IWU4)
Assay: SEC; Superdex 75, protein 10 mg/mL, 20 mM Tris pH 7.5, 150 mM NaCl with 5 mM EDTA; both purified

B1: C-terminal domain (CTD) of the human zinc transporter 8 (hZnT8), wild type (domain or fragment, UniProt Q8IWU4 281-369, looked up)
chain: SLNYSGVKELILAVDGVLSVHSLHIWSLTMNQVILSAHVATAASRDSQVVRREIAKALSKSFTMHSLTIQMESPVDQDPDCLFCEDPCD
notes: human zinc transporter 8 (hZnT8, SLC30A8), C-terminal domain, Ser281-Asp369; Expressed as His-MBP-TEV-CTD from a pET28a-based vector; N-terminal tags removed with TEV protease; Measured mass 9.828 kDa; also called WT CTD; hZnT8 CTD; source: E. coli BL21 (DE3), purified (Ni-NTA, TEV cleavage, Hi-Trap Q anion exchange, repeated Ni-NTA, amylose resin); not shown: His tag, N-terminal, cleaved; MBP, …
  binding: no binding (condition: with 5 mM EDTA)
